In doi:10.64898/2025.12.19.695442:
These are yes or no findings as the source states them, for the method shown. For part of these data: Binding seen in cells or lysates may run through a third protein. Some results given as binding are weak or reduced against the parent protein; the word gives no strength.

Protein sequences, listed by entry. Tags and fused reporters are not part of them. Lines headed by an entry give the natural chain unless they say otherwise; changes in a name come on top. Chains listed by the source or under a name are the forms on record and can include a tag or linker.
UniProt Q15691: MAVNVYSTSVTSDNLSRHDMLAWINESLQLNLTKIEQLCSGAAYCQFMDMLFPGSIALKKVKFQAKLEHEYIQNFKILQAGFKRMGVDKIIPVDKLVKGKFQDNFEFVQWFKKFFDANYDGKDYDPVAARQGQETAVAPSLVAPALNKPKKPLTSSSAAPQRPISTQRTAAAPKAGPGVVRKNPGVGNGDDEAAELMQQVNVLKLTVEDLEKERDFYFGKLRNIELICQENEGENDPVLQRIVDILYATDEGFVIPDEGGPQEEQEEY
UniProt Q8TEP8: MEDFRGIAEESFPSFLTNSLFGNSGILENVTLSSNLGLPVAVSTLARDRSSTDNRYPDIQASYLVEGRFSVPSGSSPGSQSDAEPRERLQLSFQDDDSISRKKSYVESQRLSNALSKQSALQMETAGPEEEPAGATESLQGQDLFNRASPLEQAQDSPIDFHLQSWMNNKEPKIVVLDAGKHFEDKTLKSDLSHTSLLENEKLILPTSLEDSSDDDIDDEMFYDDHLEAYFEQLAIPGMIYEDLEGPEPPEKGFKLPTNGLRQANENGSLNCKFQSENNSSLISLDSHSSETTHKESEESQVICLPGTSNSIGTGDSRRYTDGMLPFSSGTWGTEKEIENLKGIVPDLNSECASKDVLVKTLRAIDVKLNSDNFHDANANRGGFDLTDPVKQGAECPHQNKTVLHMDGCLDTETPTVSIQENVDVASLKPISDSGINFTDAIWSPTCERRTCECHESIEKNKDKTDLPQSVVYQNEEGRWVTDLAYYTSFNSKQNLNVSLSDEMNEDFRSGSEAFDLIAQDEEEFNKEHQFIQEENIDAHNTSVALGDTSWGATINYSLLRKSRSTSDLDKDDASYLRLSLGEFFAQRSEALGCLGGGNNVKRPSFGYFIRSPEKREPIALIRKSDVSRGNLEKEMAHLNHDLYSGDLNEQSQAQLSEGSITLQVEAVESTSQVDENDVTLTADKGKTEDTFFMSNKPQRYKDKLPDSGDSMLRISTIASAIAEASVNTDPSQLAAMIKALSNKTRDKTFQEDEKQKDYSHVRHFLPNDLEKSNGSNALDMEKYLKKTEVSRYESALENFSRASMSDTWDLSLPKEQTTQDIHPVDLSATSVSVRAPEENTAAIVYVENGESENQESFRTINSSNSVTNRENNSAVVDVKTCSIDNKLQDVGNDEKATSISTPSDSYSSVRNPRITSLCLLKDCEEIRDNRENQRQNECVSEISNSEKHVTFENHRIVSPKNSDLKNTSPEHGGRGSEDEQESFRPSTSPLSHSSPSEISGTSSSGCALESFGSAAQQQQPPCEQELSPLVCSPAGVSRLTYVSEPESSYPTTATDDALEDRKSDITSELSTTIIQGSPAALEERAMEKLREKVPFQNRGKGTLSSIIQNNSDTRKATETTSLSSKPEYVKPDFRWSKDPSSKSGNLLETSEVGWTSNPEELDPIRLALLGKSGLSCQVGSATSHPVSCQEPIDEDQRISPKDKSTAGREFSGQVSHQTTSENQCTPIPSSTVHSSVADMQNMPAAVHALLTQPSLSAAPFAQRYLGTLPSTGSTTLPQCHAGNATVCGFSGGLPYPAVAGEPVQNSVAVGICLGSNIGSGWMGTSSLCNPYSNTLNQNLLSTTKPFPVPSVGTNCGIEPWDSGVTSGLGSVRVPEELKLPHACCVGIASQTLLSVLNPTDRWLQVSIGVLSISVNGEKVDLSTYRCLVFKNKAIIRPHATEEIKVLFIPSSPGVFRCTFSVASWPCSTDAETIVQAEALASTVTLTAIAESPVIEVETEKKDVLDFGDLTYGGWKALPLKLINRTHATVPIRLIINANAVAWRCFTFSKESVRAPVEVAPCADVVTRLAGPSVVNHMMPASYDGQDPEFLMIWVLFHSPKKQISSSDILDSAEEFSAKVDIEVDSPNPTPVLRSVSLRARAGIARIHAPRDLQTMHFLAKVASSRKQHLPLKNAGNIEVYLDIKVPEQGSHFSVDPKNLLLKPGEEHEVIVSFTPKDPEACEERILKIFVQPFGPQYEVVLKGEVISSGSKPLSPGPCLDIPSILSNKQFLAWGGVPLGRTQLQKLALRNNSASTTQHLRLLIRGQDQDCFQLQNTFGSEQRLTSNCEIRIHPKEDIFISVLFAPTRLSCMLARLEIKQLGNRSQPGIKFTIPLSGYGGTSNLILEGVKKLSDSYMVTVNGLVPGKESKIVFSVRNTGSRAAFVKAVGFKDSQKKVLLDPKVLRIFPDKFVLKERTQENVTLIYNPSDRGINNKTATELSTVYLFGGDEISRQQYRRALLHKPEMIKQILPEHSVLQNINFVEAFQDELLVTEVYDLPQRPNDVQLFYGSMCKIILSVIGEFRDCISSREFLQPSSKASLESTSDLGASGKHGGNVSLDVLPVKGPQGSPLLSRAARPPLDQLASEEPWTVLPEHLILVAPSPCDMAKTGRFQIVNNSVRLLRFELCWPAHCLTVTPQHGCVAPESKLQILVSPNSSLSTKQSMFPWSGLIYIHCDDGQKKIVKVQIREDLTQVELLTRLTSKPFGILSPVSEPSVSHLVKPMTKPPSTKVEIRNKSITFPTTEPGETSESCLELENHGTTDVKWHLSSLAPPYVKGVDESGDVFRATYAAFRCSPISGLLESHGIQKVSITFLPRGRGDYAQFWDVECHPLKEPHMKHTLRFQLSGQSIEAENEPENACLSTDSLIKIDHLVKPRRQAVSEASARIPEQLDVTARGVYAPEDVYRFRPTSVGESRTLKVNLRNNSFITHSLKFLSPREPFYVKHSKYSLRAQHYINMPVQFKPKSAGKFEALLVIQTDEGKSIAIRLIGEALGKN
GFP-tagged Cep192 7KtoR from DLD-1 cells (Q8TEP8, form named): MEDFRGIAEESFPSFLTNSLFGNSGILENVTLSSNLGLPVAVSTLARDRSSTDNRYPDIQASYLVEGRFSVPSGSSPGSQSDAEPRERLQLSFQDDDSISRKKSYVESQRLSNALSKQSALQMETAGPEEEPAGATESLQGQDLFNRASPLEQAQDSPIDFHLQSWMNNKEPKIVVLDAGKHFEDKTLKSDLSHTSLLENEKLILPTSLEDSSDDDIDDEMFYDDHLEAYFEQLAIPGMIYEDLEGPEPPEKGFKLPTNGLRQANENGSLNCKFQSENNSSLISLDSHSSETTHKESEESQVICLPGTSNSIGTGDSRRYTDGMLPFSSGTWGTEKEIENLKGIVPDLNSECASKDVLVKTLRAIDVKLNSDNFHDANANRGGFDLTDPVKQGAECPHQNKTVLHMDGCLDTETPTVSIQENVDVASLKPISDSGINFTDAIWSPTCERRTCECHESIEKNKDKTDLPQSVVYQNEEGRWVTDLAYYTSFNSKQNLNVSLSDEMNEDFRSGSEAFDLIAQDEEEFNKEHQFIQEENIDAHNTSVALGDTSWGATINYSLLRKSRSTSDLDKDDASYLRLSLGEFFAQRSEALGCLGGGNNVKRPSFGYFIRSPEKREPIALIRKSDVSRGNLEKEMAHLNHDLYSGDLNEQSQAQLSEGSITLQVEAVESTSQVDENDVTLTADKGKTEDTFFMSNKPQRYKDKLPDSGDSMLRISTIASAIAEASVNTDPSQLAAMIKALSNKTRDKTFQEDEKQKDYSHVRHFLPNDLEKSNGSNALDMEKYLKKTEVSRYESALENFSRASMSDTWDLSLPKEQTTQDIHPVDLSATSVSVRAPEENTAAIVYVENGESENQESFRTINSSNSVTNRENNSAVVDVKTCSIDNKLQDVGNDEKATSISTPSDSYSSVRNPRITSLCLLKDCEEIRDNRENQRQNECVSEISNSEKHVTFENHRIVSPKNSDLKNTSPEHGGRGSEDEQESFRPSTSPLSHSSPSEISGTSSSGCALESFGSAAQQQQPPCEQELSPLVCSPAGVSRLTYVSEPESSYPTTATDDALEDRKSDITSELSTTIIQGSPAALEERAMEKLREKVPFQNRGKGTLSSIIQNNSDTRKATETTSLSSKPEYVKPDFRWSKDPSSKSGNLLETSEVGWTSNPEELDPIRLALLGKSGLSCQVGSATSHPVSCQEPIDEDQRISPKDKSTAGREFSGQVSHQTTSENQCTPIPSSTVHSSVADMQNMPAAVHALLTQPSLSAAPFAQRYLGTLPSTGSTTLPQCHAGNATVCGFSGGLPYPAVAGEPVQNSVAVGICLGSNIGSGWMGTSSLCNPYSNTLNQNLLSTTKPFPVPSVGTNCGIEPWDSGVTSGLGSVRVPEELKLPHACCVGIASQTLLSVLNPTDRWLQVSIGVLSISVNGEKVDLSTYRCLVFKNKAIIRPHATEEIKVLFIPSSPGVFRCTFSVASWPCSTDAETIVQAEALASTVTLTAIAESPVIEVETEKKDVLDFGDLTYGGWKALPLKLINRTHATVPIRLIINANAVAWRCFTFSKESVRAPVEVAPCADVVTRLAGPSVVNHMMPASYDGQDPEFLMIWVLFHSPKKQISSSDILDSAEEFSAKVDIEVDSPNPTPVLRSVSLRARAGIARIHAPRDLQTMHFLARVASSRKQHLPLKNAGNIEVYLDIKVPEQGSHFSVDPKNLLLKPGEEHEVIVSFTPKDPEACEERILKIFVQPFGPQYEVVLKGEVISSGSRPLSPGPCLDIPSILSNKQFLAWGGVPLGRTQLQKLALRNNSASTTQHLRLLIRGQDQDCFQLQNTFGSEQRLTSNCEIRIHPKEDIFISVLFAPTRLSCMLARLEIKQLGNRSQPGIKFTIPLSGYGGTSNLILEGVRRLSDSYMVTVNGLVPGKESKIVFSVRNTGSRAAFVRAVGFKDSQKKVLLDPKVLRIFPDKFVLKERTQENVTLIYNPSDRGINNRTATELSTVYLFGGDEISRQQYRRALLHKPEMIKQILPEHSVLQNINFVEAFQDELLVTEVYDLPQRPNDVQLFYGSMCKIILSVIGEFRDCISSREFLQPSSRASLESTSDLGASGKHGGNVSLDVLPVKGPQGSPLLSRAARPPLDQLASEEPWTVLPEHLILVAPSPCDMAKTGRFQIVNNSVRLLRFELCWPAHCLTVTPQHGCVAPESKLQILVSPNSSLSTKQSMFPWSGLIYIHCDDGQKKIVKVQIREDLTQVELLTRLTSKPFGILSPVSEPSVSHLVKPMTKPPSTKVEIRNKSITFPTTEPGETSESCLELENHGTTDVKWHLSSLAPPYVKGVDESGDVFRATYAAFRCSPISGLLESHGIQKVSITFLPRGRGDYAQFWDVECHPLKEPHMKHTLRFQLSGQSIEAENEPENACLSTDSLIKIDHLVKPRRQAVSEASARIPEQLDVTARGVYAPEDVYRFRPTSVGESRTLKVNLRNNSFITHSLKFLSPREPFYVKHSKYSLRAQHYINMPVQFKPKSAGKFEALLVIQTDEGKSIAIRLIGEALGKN
UniProt O94972: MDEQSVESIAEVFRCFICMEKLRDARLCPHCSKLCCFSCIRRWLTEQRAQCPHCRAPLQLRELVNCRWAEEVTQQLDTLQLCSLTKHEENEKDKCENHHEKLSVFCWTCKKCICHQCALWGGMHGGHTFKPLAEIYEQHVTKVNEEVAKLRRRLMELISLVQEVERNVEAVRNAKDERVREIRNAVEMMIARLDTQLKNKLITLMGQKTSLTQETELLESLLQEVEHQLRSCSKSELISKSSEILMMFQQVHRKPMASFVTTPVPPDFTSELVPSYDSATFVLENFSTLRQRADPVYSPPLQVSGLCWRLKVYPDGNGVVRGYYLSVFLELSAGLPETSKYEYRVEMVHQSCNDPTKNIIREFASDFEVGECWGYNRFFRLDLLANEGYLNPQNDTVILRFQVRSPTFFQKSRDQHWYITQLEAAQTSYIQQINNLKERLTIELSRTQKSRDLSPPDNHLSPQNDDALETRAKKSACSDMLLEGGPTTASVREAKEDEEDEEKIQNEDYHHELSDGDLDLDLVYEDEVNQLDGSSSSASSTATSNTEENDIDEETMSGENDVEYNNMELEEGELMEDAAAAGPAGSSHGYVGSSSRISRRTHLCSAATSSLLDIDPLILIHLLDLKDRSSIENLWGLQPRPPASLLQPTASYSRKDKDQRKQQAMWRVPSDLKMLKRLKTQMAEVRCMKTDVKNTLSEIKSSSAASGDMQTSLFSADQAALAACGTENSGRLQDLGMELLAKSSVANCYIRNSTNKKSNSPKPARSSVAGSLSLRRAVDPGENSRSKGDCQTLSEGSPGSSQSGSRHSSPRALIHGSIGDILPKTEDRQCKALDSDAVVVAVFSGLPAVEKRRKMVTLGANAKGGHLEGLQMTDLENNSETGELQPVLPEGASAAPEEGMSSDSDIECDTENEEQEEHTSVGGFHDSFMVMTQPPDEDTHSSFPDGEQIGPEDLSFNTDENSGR

How the values were obtained:
EB1-GFP = EB1-GFP (UniProt Q15691); assay: pull-down; purified GFP fusion (1 uM) incubated with TRIM37 (1 ug) 1 hr at 37°C, precipitated with GFP-Trap magnetic particles; washes 150 mM KCl, 25 mM HEPES, 1% glycerol, 0.05% NP-40, last wash 500 mM KCl; Western blot against TRIM37; both purified
[1] = target: GFP-tagged Cep192 7KtoR from DLD-1 cells (UniProt Q8TEP8); assay: pull-down; GFP-Cep192 constructs expressed in DLD-1 cells, on GFP-Trap beads; TRIM37 detected; source of TRIM37 not told (Fig. S1E)
[2] = target: GFP-tagged wild-type Cep192 (WT) from DLD-1 cells (UniProt Q8TEP8); assay: as above

Row | Substance | binding (EB1-GFP) | binding [1] | binding [2]
1 | TRIM37 (from UniProt O94972 1-964) | no binding (tested: 1 μM EB1, 1 μg TRIM37) | – | –
2 | TRIM37 pulled down by GFP-Cep192 constructs from DLD-1 cells (Fig. S1E) (from UniProt O94972 1-964) | – | binds | binds
